No constants are given. Whether binding was seen depends on the method and setting. Binding seen in cells or lysates may run through a third protein. A result given as binding can be weak or reduced; the word gives no strength.
Tests used:
[1] = target: non-phosphorylatable human Y118F-Paxillin (Y118F-Paxillin-T2A-GFP) (human) (UniProt P49023); assay: co-IP; in vivo: RIPA lysate of YUMM1.7 melanoma tumors grown in C57BL/6J mice; 1,000 µg total protein with 5 µg rabbit anti-Paxillin overnight at 4°C, Dynabeads Protein G 2 h at 4°C, three washes with RIPA lysis buffer; Western blot
[2] = target: phosphomimetic human Y118E-Paxillin (Y118E-Paxillin-T2A-GFP) (human) (UniProt P49023); assay: as above
[3] = target: wildtype human Paxillin (WT-Paxillin-T2A-GFP) (human) (UniProt P49023); assay: as above
[4] = target: non-phosphorylatable human Y118F-Paxillin (Y118F-Paxillin-T2A-GFP) (human) (UniProt P49023); assay: co-IP; in vitro: RIPA lysate of YUMM1.7 cells in culture; 1,000 µg total protein with 5 µg rabbit anti-Paxillin overnight at 4°C, Dynabeads Protein G 2 h at 4°C, three washes with RIPA lysis buffer; Western blot
[5] = target: wildtype human Paxillin (WT-Paxillin-T2A-GFP) (human) (UniProt P49023); assay: as above
[6] = target: phosphomimetic human Y118E-Paxillin (Y118E-Paxillin-T2A-GFP) (human) (UniProt P49023); assay: as above

By UniProt entry, the sequences of proteins in these tests, tags left out. Where a name states a change or a piece, a line headed by the entry shows the natural chain unless it says otherwise.
UniProt P49023: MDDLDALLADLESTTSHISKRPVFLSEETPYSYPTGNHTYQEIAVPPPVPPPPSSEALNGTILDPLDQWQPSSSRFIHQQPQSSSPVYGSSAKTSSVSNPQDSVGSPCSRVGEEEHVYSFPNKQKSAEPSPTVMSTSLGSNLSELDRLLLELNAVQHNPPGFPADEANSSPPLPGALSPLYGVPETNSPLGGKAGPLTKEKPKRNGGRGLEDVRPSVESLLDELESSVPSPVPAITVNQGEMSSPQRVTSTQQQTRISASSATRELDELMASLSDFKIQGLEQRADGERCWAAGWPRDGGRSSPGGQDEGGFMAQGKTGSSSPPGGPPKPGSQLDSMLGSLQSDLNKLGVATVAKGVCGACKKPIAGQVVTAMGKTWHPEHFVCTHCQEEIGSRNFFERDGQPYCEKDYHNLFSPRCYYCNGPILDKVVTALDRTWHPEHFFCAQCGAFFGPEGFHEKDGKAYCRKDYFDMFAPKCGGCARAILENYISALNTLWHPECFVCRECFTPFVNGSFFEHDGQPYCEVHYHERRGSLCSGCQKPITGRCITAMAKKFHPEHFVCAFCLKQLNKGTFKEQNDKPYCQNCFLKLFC
UniProt Q64727: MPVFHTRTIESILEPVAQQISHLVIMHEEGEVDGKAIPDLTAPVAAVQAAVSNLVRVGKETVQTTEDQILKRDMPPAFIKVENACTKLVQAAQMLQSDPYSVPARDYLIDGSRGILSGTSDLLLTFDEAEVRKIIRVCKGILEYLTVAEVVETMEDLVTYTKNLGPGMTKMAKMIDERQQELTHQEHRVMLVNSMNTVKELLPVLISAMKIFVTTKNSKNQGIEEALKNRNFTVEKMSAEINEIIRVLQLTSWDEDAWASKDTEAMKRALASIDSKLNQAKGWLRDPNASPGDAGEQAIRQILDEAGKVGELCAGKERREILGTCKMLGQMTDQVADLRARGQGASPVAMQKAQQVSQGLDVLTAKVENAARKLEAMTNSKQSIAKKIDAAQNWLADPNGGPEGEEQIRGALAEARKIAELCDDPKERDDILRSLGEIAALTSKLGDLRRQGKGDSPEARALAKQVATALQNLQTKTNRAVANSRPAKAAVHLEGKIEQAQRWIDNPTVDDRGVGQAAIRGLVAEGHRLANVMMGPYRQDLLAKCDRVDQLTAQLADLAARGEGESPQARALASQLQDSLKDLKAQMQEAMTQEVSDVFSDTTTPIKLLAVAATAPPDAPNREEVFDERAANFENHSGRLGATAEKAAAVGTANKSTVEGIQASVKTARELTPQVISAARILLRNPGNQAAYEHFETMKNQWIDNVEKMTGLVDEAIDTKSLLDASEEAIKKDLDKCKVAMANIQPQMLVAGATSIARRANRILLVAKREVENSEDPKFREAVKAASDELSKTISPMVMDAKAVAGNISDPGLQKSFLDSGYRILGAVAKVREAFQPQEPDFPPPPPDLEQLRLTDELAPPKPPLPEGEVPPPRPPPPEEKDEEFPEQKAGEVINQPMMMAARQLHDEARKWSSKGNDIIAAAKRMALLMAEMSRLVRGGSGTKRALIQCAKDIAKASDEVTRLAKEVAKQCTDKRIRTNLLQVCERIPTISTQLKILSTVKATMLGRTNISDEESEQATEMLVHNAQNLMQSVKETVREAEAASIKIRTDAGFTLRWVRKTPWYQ

Measured: binding

Vinculin (from UniProt Q64727 1-1066)
binds: [1] | [2]

DOCK180/RacGEF (from UniProt Q8BUR4 1-1865)
binds: [1] | [3]

CRKII (from UniProt Q64010-1 1-304)
not listed: [2]
binds: all other assays above

— paper PMC9929932
